The exact form of at least one protein or probe is not confirmed. At least one result comes from cells or an extract, where the contact may be indirect. For some of these results: At least one verdict was read from the data and is not stated in words by the source.
Experiments:
ASCL2 (Bos taurus) [1] = target: ASCL2 (Bos taurus) (UniProt Q2EGB9); test: competition with a labelled probe; settings: unlabelled competitor against N4 probe; Per lane 1.0 uL 10x binding buffer, 0.5 uL 50% glycerol, 0.5 uL 100 mM MgCl2 (LightShift kit); 6% polyacrylamide gel, 0.5x buffer, 110 V 75 min; protein in an extract
ACSL1 (Bos taurus) [2] = test: EMSA supershift; settings: Per lane 1.0 uL 10x binding buffer, 0.5 uL 50% glycerol, 0.5 uL 100 mM MgCl2 (LightShift kit); 6% polyacrylamide gel, 0.5x buffer, 110 V 75 min; protein in an extract; label: 5' biotin on both strands
ACSL1 (Bos taurus) [3] = test: competition with a labelled probe; settings: unlabelled competitor against N1 probe; Per lane 1.0 uL 10x binding buffer, 0.5 uL 50% glycerol, 0.5 uL 100 mM MgCl2 (LightShift kit); 6% polyacrylamide gel, 0.5x buffer, 110 V 75 min; protein in an extract
ASCL2 (Bos taurus) [4] = target: ASCL2 (Bos taurus) (UniProt Q2EGB9); test: EMSA with antibody; settings: antibody weakens the band; Per lane 1.0 uL 10x binding buffer, 0.5 uL 50% glycerol, 0.5 uL 100 mM MgCl2 (LightShift kit); 6% polyacrylamide gel, 0.5x buffer, 110 V 75 min; protein in an extract; label: 5' biotin on both strands

The chains behind the UniProt entries cited, without tags or fusion partners.
UniProt Q2EGB9, whole entry: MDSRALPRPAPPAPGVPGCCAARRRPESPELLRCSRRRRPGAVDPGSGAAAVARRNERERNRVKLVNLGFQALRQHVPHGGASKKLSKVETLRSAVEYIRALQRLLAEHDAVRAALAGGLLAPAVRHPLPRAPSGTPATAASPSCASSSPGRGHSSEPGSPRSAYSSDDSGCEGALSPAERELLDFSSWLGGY

“TAAGCCCTCCAGCAGCTGCTCCTCTGATTGGCT (double strand) [ASCL2-jz competitor]”: binds (ASCL2 (Bos taurus) [1]).

“TGGCTGGGTGGTTCAGCTGCTTCCCTGGAACAGA (double strand) [ACSL1-bio probe]”: binds (ACSL1 (Bos taurus) [2]).

“TGGCTGGGTGGTTCAGCTGCTTCCCTGGAACAGA (double strand) [ACSL1-jz competitor]”: binds (ACSL1 (Bos taurus) [3]).

“TAAGCCCTCCAGCAGCTGCTCCTCTGATTGGCT (double strand) [ASCL2-bio probe]”: binds (ASCL2 (Bos taurus) [4]).

— paper PMC6947481
